For at least one entry, the source does not settle the construct or the ends of the probe. Tags and fusion partners may be left off the protein sequences shown.
Target: T1, MBNL1 (UniProt Q9NR56)
T1 sequence (looked up, limits assumed): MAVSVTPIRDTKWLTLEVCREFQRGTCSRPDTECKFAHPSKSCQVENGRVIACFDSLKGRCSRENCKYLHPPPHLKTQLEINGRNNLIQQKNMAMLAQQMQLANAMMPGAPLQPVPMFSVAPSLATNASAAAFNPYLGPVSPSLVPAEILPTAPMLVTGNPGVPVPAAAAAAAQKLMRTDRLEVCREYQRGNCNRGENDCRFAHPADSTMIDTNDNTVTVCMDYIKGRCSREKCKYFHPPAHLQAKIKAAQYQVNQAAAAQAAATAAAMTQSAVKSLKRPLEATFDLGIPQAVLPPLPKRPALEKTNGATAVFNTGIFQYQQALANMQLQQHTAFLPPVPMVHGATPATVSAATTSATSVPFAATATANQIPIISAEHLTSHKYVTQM
Assay: binding assay
Settings: enzyme fragment complementation (beta-galactosidase) on plate-immobilized RNA; signal inhibited up to 50% by dimer ligands 8-8, 9-9, 7-9, 8-9, not by 6-6 or …; purified recombinant protein

“GGGCUGCUGCUGCUGCUGCUGCUGCUGCUGCUGCUGCUGCUGCUGCUGCUGCUGCUGCUGCUGCUGCUGCUGCUGCUGCUGCUGCUGCUGCUGCUGCUGCUGCUGCUGCUGCUGCUGCUGCUGCUGCUGCUGCUGCUGCUGCUGCUGCUGCUGCUGCUGCUGCUGCUGCUGCUGCUGCUGCUGCUGCUGCUGCUGCUGCUGCUGCUGCUGCUGCUGCUGCUGCUGCUGCUGCUGCUGCUGCUGCUGCUGCUGCUGCUGCUGCUGCUGCUGCUGCUGCUGCUGCUGCUGCUGCUGCUGCUGCUGCUGCUGCUGCUGCUGCUGCUGCUGCUGGGG [(CUG)109 repeat RNA]”: binds.

Reference: patent US20100266677
